Measured values as given in publication PMC2565686.
These are yes or no findings as the source states them, for the method shown. Binding seen in cells or lysates may run through a third protein. A result given as binding can be weak or reduced; the word gives no strength.

Amino acid sequences for entries named in this document (tags omitted). A change or cut given only in a name is not applied to a line headed by its entry.
UniProt Q9UK53: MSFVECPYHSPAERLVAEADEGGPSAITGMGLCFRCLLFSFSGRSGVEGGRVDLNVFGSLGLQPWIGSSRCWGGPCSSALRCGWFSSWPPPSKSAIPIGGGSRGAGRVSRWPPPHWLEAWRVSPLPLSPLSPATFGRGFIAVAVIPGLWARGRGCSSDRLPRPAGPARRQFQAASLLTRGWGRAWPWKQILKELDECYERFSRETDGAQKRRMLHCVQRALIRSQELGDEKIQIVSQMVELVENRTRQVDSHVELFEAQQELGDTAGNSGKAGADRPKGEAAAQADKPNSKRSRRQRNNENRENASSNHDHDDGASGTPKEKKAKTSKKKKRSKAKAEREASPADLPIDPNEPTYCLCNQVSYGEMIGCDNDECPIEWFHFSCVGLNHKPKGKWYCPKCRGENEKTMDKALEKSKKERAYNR
UniProt Q92878: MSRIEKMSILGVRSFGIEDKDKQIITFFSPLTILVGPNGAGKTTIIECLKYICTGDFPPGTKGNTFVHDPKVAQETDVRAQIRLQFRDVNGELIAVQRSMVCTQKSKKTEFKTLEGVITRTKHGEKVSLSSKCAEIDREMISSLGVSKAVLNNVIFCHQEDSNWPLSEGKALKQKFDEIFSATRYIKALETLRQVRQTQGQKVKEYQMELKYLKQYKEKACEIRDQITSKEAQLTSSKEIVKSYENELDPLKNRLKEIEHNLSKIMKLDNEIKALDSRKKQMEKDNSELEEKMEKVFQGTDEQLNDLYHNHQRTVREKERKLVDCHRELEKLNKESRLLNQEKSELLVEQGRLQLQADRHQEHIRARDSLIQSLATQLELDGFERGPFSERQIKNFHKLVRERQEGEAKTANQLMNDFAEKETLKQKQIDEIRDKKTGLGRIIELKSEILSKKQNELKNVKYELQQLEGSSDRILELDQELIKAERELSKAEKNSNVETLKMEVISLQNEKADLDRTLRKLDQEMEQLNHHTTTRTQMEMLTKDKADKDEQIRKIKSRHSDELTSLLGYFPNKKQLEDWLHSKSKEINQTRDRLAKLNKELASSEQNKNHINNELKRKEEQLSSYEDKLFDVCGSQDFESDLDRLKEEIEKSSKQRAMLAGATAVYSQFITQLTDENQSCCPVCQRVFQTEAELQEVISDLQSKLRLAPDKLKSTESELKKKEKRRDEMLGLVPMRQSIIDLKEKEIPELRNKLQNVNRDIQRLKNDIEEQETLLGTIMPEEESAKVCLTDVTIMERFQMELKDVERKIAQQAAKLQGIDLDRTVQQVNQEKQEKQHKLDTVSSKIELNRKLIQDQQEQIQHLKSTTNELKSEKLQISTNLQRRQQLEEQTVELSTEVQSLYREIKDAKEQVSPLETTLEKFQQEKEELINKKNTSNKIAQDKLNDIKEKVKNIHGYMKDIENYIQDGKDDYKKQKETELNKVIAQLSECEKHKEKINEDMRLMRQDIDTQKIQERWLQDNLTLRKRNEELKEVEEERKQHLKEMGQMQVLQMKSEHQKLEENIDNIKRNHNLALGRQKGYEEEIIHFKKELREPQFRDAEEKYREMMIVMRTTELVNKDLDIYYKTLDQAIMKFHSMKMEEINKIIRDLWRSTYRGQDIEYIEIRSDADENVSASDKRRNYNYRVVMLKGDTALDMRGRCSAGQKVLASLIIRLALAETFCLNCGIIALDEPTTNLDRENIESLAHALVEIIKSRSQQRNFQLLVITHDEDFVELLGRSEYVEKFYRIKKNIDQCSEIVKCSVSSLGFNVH

Molecular target: endogenous ING1 (INhibitor of Growth 1) (human (endogenous in HEK293)) (UniProt Q9UK53)
Assay: co-IP; untransfected HEK293 cells, lysed in RIPA buffer, immunoprecipitated with mouse anti-ING1 on protein G-Sepharose (4°C, 3 hrs), immunoblotted for the partner; cells untreated or exposed to 40 J/m^2 UV; anti-GST immunoprecipitate as negative control

binding: binds
Substance: endogenous RAD50 (from UniProt Q92878 1-1312)
